Substitutions are numbered along the chain they refer to. No constants are given. Whether binding was seen depends on the method and setting. In cells and extracts the contact can be indirect. Some binding calls cover weakened binding; strength is not graded here. Where a sequence is shown, tags or fusion partners need not be part of it.
Key:
[1] = molecular target: T1, Full-length human hephaestin, wild type, with a C-terminal FLAG-tag (human) (UniProt Q9BQS7); assay: proximity ligation; Duolink PLA on HEK293T co-transfected with Fpn1-GFP and HephWT or HephD568H; cells incubated for 30 min with 0.25 µM apo-Tfn or holo-Tfn in serum-free medium before fixation; only the binder purified
T1 sequence: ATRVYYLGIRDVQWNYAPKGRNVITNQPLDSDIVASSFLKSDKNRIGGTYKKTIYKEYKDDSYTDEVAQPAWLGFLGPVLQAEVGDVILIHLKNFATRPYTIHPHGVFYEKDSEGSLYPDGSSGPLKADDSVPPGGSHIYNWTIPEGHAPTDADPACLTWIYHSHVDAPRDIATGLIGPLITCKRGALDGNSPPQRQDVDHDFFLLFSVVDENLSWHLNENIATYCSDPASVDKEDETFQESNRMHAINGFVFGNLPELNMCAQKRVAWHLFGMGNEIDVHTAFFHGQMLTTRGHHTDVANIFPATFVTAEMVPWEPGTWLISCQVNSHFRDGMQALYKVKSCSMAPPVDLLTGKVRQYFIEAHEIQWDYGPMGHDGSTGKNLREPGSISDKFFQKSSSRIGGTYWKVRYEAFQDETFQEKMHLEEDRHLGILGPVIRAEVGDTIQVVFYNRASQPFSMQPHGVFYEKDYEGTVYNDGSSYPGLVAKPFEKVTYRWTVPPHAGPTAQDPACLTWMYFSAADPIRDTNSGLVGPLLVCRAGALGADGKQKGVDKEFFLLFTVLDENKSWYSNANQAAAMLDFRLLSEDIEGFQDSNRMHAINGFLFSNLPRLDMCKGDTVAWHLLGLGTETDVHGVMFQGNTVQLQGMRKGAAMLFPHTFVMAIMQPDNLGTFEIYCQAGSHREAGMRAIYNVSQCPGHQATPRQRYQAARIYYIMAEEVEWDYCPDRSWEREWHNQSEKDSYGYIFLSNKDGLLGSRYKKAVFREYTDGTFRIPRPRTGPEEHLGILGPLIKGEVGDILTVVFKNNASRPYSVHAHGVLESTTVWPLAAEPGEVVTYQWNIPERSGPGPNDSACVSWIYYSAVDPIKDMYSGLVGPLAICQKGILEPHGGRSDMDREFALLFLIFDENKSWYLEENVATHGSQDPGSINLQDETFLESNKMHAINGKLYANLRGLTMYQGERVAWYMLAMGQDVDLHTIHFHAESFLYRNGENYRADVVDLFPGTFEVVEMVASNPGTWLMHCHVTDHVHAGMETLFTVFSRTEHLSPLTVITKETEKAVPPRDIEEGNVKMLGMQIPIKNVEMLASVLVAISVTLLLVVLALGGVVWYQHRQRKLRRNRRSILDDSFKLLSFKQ

By UniProt entry, the sequences of proteins in these tests, tags left out. Residues count along the entry.
UniProt P02787, residues 20-698: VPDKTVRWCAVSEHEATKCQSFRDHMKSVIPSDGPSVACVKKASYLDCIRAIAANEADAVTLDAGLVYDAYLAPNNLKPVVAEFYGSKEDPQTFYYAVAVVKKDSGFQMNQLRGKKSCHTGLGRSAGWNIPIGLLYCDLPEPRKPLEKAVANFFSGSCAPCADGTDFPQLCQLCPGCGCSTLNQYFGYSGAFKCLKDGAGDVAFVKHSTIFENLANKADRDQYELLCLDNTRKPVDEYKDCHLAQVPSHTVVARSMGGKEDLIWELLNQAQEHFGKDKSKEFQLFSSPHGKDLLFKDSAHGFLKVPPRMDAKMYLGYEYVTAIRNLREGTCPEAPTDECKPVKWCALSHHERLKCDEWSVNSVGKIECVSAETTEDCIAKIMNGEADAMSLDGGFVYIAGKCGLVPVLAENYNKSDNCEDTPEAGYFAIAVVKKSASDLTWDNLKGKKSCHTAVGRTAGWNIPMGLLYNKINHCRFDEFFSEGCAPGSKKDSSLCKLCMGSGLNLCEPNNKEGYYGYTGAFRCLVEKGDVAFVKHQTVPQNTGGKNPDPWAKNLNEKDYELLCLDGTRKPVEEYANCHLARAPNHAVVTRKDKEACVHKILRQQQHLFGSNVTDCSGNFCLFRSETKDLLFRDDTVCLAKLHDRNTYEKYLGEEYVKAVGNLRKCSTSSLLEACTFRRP

[2] = molecular target: T2, Full-length human hephaestin variant D568H with a C-terminal FLAG-tag (human) (UniProt Q9BQS7); assay: as above
T2 sequence: T1 sequence with D545H

binding [1]: binds
binding [2]: binds weakly
Substance: Apo-transferrin (iron-depleted transferrin) (from UniProt P02787 20-698)

From publication PMC11941830
